{"sequences": {"note": "Amino acid sequences for entries named in this document (tags omitted). A change or cut given only in a name is not applied to a line headed by its entry.", "UniProt Q02447": "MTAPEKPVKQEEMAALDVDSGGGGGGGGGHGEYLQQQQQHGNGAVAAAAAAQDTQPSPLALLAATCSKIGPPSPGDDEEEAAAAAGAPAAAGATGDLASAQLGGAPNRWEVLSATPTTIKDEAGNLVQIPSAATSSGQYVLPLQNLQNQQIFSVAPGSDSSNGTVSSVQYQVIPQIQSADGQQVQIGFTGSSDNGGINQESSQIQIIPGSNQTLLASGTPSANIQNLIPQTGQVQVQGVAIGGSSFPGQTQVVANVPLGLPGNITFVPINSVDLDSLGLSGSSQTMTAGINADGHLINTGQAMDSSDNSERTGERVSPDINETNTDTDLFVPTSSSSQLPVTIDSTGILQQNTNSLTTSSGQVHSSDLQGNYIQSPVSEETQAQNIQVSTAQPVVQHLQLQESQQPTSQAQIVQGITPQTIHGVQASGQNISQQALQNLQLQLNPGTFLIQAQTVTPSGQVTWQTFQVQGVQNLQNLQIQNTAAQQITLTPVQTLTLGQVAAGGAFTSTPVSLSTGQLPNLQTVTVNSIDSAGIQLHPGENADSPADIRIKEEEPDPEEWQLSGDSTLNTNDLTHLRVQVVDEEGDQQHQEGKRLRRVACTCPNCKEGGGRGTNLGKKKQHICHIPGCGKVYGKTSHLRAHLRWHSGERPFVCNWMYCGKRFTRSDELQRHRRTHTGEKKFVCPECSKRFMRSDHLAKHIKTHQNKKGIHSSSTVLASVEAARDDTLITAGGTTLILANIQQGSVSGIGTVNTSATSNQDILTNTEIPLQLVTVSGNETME", "UniProt Q8WV41": "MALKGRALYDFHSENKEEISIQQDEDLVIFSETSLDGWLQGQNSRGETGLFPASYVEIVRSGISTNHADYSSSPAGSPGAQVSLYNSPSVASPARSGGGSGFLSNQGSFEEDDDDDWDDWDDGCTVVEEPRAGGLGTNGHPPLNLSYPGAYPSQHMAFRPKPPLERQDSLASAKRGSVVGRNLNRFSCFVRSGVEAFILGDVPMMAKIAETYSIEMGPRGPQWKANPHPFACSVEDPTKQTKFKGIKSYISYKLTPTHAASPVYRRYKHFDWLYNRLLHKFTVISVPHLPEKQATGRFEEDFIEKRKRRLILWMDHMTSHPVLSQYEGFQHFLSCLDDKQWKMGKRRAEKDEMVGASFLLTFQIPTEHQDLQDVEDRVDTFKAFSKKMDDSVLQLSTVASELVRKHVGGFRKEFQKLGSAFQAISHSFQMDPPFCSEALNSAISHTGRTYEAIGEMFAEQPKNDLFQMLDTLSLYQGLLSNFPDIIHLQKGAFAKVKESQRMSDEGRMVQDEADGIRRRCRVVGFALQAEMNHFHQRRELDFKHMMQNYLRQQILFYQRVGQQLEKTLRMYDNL", "UniProt Q96RF0": "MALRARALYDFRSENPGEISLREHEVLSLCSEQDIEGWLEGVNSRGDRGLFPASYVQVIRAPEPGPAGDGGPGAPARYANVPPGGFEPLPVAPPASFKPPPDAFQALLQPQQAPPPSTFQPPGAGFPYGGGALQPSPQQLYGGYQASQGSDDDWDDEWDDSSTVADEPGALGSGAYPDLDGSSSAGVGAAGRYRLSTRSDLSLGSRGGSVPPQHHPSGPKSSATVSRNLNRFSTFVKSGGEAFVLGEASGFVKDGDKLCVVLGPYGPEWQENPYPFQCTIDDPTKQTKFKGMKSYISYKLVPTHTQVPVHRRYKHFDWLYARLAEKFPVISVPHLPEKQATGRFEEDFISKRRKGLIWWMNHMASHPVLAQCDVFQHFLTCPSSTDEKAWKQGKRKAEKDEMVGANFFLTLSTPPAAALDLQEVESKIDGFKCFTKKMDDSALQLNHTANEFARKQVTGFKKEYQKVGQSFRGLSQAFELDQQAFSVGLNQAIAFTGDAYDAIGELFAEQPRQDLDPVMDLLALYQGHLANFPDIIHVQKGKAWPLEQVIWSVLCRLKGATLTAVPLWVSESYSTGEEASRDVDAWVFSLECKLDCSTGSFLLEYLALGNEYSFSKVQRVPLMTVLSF", "UniProt Q8IYR2": "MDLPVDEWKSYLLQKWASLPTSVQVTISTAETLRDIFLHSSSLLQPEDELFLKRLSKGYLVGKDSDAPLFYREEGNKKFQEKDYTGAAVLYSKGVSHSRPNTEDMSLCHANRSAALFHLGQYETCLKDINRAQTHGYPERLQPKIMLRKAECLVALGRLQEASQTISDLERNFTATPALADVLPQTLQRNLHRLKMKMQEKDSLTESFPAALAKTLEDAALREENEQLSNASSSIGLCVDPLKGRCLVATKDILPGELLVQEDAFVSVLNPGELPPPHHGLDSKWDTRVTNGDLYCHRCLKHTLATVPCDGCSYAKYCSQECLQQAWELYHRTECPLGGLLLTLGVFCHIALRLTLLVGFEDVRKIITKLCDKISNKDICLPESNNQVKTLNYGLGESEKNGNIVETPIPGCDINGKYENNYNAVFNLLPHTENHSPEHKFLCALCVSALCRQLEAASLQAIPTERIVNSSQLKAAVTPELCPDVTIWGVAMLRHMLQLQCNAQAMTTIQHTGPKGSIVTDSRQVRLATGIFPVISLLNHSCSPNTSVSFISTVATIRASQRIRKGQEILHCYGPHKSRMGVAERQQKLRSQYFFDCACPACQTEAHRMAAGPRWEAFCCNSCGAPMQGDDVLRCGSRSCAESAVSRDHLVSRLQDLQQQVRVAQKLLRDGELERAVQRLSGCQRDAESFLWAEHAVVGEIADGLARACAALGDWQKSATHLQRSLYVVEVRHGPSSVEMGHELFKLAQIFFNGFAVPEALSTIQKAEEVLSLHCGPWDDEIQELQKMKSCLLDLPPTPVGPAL", "UniProt Q92543": "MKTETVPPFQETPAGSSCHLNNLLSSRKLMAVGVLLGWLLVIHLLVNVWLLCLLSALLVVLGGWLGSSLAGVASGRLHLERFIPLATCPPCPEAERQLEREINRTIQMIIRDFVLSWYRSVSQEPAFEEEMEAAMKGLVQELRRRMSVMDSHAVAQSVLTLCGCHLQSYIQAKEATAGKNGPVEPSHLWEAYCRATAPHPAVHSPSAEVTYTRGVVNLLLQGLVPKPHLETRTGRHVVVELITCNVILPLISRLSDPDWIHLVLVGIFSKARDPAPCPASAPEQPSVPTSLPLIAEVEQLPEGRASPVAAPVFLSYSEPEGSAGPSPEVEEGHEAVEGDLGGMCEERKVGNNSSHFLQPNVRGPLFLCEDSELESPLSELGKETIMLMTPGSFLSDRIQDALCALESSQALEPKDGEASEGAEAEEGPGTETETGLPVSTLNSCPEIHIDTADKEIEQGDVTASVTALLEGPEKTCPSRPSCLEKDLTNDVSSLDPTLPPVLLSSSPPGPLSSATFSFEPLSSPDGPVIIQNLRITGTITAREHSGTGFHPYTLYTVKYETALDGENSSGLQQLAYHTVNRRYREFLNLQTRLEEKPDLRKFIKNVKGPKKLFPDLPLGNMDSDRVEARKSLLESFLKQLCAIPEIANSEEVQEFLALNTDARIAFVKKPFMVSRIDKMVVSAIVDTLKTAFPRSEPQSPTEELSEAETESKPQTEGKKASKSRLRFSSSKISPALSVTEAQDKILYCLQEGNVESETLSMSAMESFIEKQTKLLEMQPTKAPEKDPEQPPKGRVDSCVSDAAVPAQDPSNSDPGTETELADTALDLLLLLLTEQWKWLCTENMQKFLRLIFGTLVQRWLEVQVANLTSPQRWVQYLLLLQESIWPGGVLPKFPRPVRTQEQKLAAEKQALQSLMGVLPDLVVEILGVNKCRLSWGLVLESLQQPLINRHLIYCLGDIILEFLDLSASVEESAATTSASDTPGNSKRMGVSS", "UniProt P58511": "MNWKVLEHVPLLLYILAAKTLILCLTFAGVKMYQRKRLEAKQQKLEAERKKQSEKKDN", "UniProt Q9Y343": "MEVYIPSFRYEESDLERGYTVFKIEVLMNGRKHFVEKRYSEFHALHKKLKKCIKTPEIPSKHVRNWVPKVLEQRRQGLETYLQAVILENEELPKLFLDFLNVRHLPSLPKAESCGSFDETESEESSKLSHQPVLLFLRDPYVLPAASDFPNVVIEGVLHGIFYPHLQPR", "UniProt Q16560": "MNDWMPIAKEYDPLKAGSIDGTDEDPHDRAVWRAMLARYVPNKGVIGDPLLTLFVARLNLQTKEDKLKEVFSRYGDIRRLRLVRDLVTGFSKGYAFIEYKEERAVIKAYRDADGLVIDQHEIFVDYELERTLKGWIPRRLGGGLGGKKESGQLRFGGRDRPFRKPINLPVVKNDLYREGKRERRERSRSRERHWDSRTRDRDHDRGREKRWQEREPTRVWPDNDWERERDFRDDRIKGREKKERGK", "UniProt P02814": "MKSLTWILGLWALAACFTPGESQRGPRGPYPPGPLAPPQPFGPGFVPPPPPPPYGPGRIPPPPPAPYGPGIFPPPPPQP", "UniProt Q6X4U4": "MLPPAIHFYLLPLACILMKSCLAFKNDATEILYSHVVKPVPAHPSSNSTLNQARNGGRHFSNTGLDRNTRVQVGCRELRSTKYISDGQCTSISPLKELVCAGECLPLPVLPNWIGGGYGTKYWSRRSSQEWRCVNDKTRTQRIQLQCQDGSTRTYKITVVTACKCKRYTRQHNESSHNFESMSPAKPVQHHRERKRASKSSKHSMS", "UniProt Q92485": "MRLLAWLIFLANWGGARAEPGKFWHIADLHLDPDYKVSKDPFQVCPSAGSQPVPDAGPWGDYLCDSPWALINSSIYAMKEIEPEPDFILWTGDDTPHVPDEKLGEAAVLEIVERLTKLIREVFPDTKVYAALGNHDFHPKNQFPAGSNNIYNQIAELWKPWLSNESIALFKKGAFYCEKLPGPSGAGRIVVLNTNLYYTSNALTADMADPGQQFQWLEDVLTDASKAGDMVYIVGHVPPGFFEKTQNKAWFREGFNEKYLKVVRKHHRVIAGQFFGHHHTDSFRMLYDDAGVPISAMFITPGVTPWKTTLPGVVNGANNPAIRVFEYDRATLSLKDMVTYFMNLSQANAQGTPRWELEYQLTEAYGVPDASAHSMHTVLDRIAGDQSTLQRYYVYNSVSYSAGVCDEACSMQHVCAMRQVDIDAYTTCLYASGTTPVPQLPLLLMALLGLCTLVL", "UniProt Q9Y5W8": "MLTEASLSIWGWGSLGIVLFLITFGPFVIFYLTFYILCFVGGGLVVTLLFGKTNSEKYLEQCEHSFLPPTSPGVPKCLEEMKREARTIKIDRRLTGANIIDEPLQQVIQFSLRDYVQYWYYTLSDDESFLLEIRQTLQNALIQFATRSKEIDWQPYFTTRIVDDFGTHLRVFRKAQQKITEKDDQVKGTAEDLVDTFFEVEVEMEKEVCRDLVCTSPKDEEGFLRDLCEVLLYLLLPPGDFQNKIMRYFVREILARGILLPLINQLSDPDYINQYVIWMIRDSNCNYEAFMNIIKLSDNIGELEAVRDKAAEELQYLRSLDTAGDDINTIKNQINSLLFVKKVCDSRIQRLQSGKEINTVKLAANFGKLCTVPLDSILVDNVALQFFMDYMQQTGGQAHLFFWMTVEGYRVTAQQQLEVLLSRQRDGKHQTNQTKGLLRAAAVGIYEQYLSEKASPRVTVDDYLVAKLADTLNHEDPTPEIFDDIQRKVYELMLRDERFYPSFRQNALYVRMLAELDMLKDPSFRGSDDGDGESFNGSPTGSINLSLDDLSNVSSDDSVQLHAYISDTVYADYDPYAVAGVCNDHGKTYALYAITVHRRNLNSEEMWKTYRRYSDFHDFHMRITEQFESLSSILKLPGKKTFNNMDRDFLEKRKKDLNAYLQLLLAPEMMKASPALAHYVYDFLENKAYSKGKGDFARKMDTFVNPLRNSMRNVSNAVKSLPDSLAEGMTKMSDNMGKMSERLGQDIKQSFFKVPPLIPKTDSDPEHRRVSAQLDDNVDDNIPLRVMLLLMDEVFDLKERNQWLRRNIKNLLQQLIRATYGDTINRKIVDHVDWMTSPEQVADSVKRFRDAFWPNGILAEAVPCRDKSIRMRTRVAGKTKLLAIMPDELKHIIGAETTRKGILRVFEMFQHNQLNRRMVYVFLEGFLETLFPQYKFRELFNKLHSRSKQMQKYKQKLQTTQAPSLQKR", "UniProt Q5SQN1": "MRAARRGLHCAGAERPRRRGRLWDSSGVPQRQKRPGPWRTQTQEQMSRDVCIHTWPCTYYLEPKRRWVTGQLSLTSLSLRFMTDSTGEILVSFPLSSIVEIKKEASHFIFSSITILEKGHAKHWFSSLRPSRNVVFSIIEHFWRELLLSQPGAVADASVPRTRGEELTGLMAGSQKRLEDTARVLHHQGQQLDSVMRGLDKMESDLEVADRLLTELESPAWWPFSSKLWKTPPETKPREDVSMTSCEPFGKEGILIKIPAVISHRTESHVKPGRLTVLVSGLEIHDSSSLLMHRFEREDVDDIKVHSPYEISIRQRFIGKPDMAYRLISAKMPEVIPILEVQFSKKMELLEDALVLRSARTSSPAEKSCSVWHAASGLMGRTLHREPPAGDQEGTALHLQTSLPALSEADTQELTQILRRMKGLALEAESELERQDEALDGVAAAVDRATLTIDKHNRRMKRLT"}, "source": "the supplement of paper PMC10849652", "experiment_in_all_cases": "log2 fold change, soluble protein after heating vs DMSO (PISA); higher = thermal stabilisation; K562 lysate, 10 uM; active = over 0.2 and 3.5 SD of the protein, either way, in both replicates (recomputed)", "key": {"[1]": {"compound": "C1=CC=C(C=C1)[C@H](COC2=CC3=C(C=C2)NC(=O)N3)NC(=O)C4=CC=CN(C4=O)CC5=CC(=C(C=C5)F)F", "how_it_was_run": "(§1)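 To prepare the extract, K562 pellets were dounce-homogenised in PBS pH 7.4 with 1 mM MgCl2, giving crude material at 1 mg/mL protein. This was treated with 10 μM compound for 30 min, then heated in aliquots for 3 min over 48°C-58°C before pooling and addition of NP-40 to 0.5% at 4°C. Centrifugation at 21,000xg for 90 min left soluble protein in the supernatant, which TMTpro 16plex LC-MS/MS quantified with equalised channel sums. Results are log-two fold changes in thermal stability compared with solvent controls, from duplicates.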"}, "[2]": {"compound": "CC1=C(SC2=C1C(=N[C@H](C3=NN=C(N32)C)CC(=O)N)C4=CC=C(C=C4)Cl)C", "how_it_was_run": "as §1"}, "[3]": {"compound": "Cc1sc2c(c1C)C(c1ccc(Cl)cc1)=N[C@@H](CC(=O)OC(C)(C)C)c1nnc(C)n1-2", "how_it_was_run": "as §1"}, "[4]": {"compound": "c1ccc([C@@H]2C[C@H]2NC2CCNCC2)cc1", "how_it_was_run": "as §1"}, "[5]": {"compound": "CC1=C2C(=CC=C1)N=C(N(C2=O)C3=CC=CC=C3C)CN4C=NC5=C(N=CN=C54)N", "how_it_was_run": "as §1"}}, "note": "The list shows a part of the results.", "data": [{"target": "SP3 (UniProt Q02447)", "values": [{"measurement": "log2 fold change", "setting": "[1]", "value": "inactive: 0.075"}, {"measurement": "log2 fold change", "setting": "[2]", "value": "inactive: -0.068"}, {"measurement": "log2 fold change", "setting": "[3]", "value": "inactive: 0.001"}, {"measurement": "log2 fold change", "setting": "[4]", "value": "inactive: 0.049"}]}, {"target": "SNX29 (UniProt Q8TEQ0)", "values": [{"measurement": "log2 fold change", "setting": "[4]", "value": "inactive: 0"}]}, {"target": "SNX33 (UniProt Q8WV41)", "values": [{"measurement": "log2 fold change", "setting": "[1]", "value": "inactive: -0.227"}, {"measurement": "log2 fold change", "setting": "[2]", "value": "inactive: -0.008"}, {"measurement": "log2 fold change", "setting": "[3]", "value": "inactive: 0.047"}]}, {"target": "SNX18 isoform 2 (UniProt Q96RF0)", "values": [{"measurement": "log2 fold change", "setting": "[5]", "value": "inactive: 0.082"}, {"measurement": "log2 fold change", "setting": "[4]", "value": "inactive: 0.152"}]}, {"target": "SMYD4 (UniProt Q8IYR2)", "values": [{"measurement": "log2 fold change", "setting": "[3]", "value": "inactive: 0.029"}, {"measurement": "log2 fold change", "setting": "[4]", "value": "inactive: 0.153"}]}, {"target": "SNX19 (UniProt Q92543)", "values": [{"measurement": "log2 fold change", "setting": "[3]", "value": "inactive: 0.061"}, {"measurement": "log2 fold change", "setting": "[4]", "value": "inactive: -0.013"}]}, {"target": "SNX10 (UniProt Q9Y5X0)", "values": [{"measurement": "log2 fold change", "setting": "[3]", "value": "inactive: 0.187"}]}, {"target": "SNRPD2 (UniProt K7EJB5)", "values": [{"measurement": "log2 fold change", "setting": "[5]", "value": "inactive: 0.024"}, {"measurement": "log2 fold change", "setting": "[3]", "value": "inactive: -0.047"}]}, {"target": "SMIM11A (UniProt P58511)", "values": [{"measurement": "log2 fold change", "setting": "[5]", "value": "inactive: 0.166"}]}, {"target": "SNX24 (UniProt Q9Y343)", "values": [{"measurement": "log2 fold change", "setting": "[1]", "value": "inactive: 0.016"}, {"measurement": "log2 fold change", "setting": "[2]", "value": "inactive: 0.003"}, {"measurement": "log2 fold change", "setting": "[3]", "value": "inactive: 0.047"}, {"measurement": "log2 fold change", "setting": "[4]", "value": "inactive: 0.031"}]}, {"target": "SNRNP35 isoform 2 (UniProt Q16560)", "values": [{"measurement": "log2 fold change", "setting": "[3]", "value": "inactive: 0.022"}, {"measurement": "log2 fold change", "setting": "[4]", "value": "inactive: 0.307"}]}, {"target": "SMR3B (UniProt P02814)", "values": [{"measurement": "log2 fold change", "setting": "[4]", "value": "inactive: 0.085"}]}, {"target": "SOSTDC1 isoform 2 (UniProt Q6X4U4)", "values": [{"measurement": "log2 fold change", "setting": "[3]", "value": "inactive: 0.068"}]}, {"target": "SMPDL3B (UniProt Q92485)", "values": [{"measurement": "log2 fold change", "setting": "[5]", "value": "inactive: 0.052"}, {"measurement": "log2 fold change", "setting": "[3]", "value": "inactive: -0.02"}, {"measurement": "log2 fold change", "setting": "[4]", "value": "inactive: -0.059"}]}, {"target": "SNX13 (UniProt Q9Y5W8)", "values": [{"measurement": "log2 fold change", "setting": "[1]", "value": "inactive: 0.079"}, {"measurement": "log2 fold change", "setting": "[2]", "value": "inactive: -0.102"}, {"measurement": "log2 fold change", "setting": "[3]", "value": "inactive: 0.034"}]}, {"target": "SNAP47 (UniProt Q5SQN1)", "values": [{"measurement": "log2 fold change", "setting": "[1]", "value": "inactive: 0.099"}, {"measurement": "log2 fold change", "setting": "[2]", "value": "inactive: -0.028"}, {"measurement": "log2 fold change", "setting": "[3]", "value": "inactive: 0.002"}, {"measurement": "log2 fold change", "setting": "[4]", "value": "inactive: -0.016"}]}]}
